Results taken from patent publication US10912816B2, “Obesity-related genes and their proteins and uses thereof” (THE TRUSTEES OF COLUMBIA UNIVERSITY IN THE CITY OF NEW YORK, priority 2010, dated 2021).
“Also recorded” adds a separate entry of the source. Where two headings read alike, the source gives them in different places. Not every detail of the peptide structures is certain; ends, links or a residue may be inferred.

What was measured:
[1] = system: rat stomach explant; details: Mirabeau et al. (2007), cited from earlier work
[2] = 24 hr metabolic parameters of DIO mice in metabolic chambers (CLAMS open-circuit indirect calorimetry); type: in vivo, C57BL/6J DIO mice; details: for locomotor activity (Z = rearing plane, and total): relative to vehicle treated DIO controls; for RER (in words): toward fat oxidation, particularly at night
[3] = Body weight and 24 hour feeding behavior in DIO rats (BioDaq Food Intake Monitoring System); type: in vivo; details: for 24 hr food intake (in words): daily sc injections (FIG. 22A)
Description: Obese adult female Wistar rats (n=4/group) received single daily injections (sc) of vehicle or Spexin (35 μg/kg BW). Body weights and food intake were measured daily. Average daily food intake (FIG. 22A) and body weight (FIG. 22B) for each group was recorded for each 24 hr period. 24 hr food intake was reduced in the Spexin treated animals (dark circles) by Day 3. […] This effect persisted well beyond the immediate treatment period, and was apparent out to Day 7.
A more detailed analysis of hourly feeding behaviors, including 1) number of “meals” during a 24 hr light/dark cycle, and 2) meal duration and incidence were continuously recorded by a BioDaq Food Intake Monitoring System (FIG. 23). Pre-treatment baselines (FIG. 23A), on-treatment responses (FIG. 23B), early (FIG. 23C) and late (FIG. 23D) “wash-out” periods are presented. Horizontal white lines indicate “lights on”. As expected, the vast majority of feeding occurs during “lights off” since rats are nocturnal feeders. […] What was reduced was the meal size and duration (both smaller). […] Without being bound by theory, Spexin is a potent natural satiety-inducing agent.
Obese (DIO) adult female Wistar rats (n=4/group) received single daily injections (sc) of vehicle or Spexin (35 μg/kg BW). Individual body weights and food intake were measured and recorded daily, and the average food intake and body weight for each group was recorded for each 24 hour period. For a more detailed analysis of hourly feeding behaviors, number of feeding events or “meals” during a 24 hour light/dark cycle, and frequency and durations of individual meals were continuously recorded via a BioDaq Food Intake Monitoring System (New Brunswick, N.J.).

[4] = Daily Spexin injections in diet-induced-obesity (high-fat-diet) mice: body weight and food consumption; type: in vivo, C57BL/6J DIO mice
[5] = system: adipocytes isolated from DIO mice; test: In vitro Spexin incubation of isolated adipocytes, LCFA uptake; type: cell-based; details: for concentration-response of inhibition of LCFA uptake: 10 concentrations, 0.01 to 80 ng/ml, two hours at 37° C. (FIG. 28)
[6] = system: adipocyte LCFA uptake; test: [3H]-oleic acid (LCFA) uptake kinetics in adipocytes isolated from Spexin-treated DIO mice; type: in vivo
[7] = 35 μg/kg i.p. daily for 19 days
[8] = 35 μg/kg i.p. daily, listed as spexin

Which stomach contraction ([1]; listed as spexin) does the source give for `CSCC[C@H](NC(=O)[C@H](C)NC(=O)[C@H](CCC(N)=O)NC(=O)[C@@H]1CCCN1C(=O)[C@@H](NC(=O)[C@H](Cc1c[nH]c2ccccc12)NC(=O)[C@@H](N)CC(N)=O)[C@@H](C)O)C(=O)N[C@@H](CC(C)C)C(=O)N[C@@H](Cc1ccc(O)cc1)C(=O)N[C@@H](CC(C)C)C(=O)N[C@@H](CCCCN)C(=O)NCC(=O)N[C@@H](C)C(=O)N[C@@H](CCC(N)=O)C(N)=O` [Spexin, NWTPQAMLYLKGAQ-amide] here?
Its stomach contraction is “contractile activity”.

And the stomach contraction [1]?
Its stomach contraction is “induces stomach contractions; also recorded: induced muscarinic-like contractions; also recorded: contractile effects”.

What about the VCO2 vs control [2, 7] of the same compound?
Its VCO2 vs control is “virtually identical; also recorded: essentially no difference”.

And the “energy expenditure (EE) vs control” value [2, 7]?
The value was “almost identical”.

What about the “VO2 consumption vs control” value ([2]; 35 μg/kg i.p. daily for 19 days, Light, Dark and total periods) of the same compound?
Its value is “modest, non-significant increase; also recorded: little difference”.

And the “respiratory exchange ratio (RER), Dark cycle” value ([2]; 35 μg/kg i.p. daily for 19 days, control 0.795+/−0.002, p=0.006)?
Its value is 0.784+/−0.002.

What about the “total (24 h) RER vs control” value ([2]; 35 μg/kg i.p. daily for 19 days, not significant (p=0.056)) of the same compound?
Its value is “lower”.

And the “locomotor activity (Z = rearing plane, and total)” value ([2]; 35 μg/kg i.p. daily)?
The value was “increases locomotor activity; also recorded: significantly increased locomotor activity”.

And the “locomotor activity (Z = rearing plane, and total)” value [2, 8]?
The value was “Elevations in ambulation”.

And the “RER (in words)” value ([2]; 35 μg/kg i.p. daily)?
Its value is “significantly reduces RER; also recorded: significantly reduced the RER”.

What about the “RER (in words)” value [2, 8] of the same compound?
The value was “reductions in the RER reach significance”.

What about the “body weight in metabolic chambers (in words)” value ([2]; 35 μg/kg i.p. daily, vehicle animals continued to gain weight) of the same compound?
Its value is “lost weight; also recorded: tendency to fail to maintain adipose tissue weight”.

What about the “less total diet / calories consumed over a 24 hr recording period” value ([3]; DIO rats on treatment (FIG. 23B)) of the same compound?
The value was “approximately 30%”.

What about the “persistence of reduced food intake” value ([3]; DIO rats, beyond the treatment period) of the same compound?
The value was 7 days.

And the “24 hr food intake (in words)” value ([3]; DIO rats)?
The value was “reduced; also recorded: significantly inhibited food intake”.

And the “24 hr food intake (in words)” value ([3]; DIO rats, listed as spexin)?
The value was “reductions”.

What about the “less high-fat diet consumed per day” value ([4]; DIO mice, 10 μg/kg IP QD for 10 days) of the same compound?
The value was “approximately 20%”.

And the “average daily weight loss” value ([4]; DIO mice, 10 μg/kg IP QD for 10 days (FIG. 26))?
Its value is about 0.17 gms/day.

And the “slope of change from baseline body weight” value ([4]; DIO mice, 25 μg/kg IP daily in 0.1 mL PBS, n=5 (FIG. 26 legend))?
Its value is -0.1742 g/day.

What about the “body weight loss per day” value ([4]; DIO mice, 0.2 ml of 2500 ng/mL Spexin in 1x PBS injected daily for 6 days (FIG. 18B)) of the same compound?
The value was “approximately 0.3 g”.

And the “mean weight vs PBS group at sacrifice” value ([4]; at 7 weeks, mean starting weight 46 g (Spexin) vs 42 g (PBS) (FIG. 19))?
Its value is “not different”.

What about the “food consumption and body weight (in words)” value ([4]; obese HFD-fed C57BL/6J mice, 10 μg/kg body weight/day IP, vs vehicle) of the same compound?
The value was “reduced food consumption and body weight; also recorded: reduction in food consumption and body weight”.

And the “weight gain vs PBS group” value ([4]; obese HFD-fed C57BL/6J mice, daily IP Spexin in PBS + 0.05% BSA at a dose predicted to maintain body weight, 7 weeks (FIG. 19))?
Its value is “gained weight much more slowly”.

What about the “concentration-response of inhibition of LCFA uptake” value [5] of the same compound?
The value was “hormesis; also recorded: strong inhibition”.

And the “concentration-response of inhibition of LCFA uptake” value ([5]; listed as spexin)?
The value was “hormesis”.

What about the “adipocyte LCFA uptake (in words)” value ([5]; PBS/Spexin 20 ng/mL, 2 hrs in vitro (FIG. 21)) of the same compound?
Its value is “significant down-regulation”.

And the “down-regulation of adipocyte LCFA uptake” value ([5]; PBS/Spexin 20 ng/mL, 2 hrs in vitro, both Spexin preparations (Phoenix, Ferring) nearly identical)?
The value was about 40%.

And the “Vmax for facilitated LCFA uptake as percent of control mice” value ([6]; adipocytes from Spexin-treated DIO mice)?
Its value is 28%.

And the “Vmax for facilitated LCFA uptake” value ([6]; adipocytes from epididymal fat pads of Spexin-treated DIO mice, control 211±60, p=0.047)?
Its value is 61±9 pmol/sec/50,000 cells.
